Source: publication PMC5825159
No constants are given. Whether binding was seen depends on the method and setting. Binding seen in cells or lysates may run through a third protein. Some binding calls cover weakened binding; strength is not graded here. For some of these results: Where a sequence is shown, tags or fusion partners need not be part of it.

Chains of the proteins cited; added tags and fusions are not shown.
UniProt P35582: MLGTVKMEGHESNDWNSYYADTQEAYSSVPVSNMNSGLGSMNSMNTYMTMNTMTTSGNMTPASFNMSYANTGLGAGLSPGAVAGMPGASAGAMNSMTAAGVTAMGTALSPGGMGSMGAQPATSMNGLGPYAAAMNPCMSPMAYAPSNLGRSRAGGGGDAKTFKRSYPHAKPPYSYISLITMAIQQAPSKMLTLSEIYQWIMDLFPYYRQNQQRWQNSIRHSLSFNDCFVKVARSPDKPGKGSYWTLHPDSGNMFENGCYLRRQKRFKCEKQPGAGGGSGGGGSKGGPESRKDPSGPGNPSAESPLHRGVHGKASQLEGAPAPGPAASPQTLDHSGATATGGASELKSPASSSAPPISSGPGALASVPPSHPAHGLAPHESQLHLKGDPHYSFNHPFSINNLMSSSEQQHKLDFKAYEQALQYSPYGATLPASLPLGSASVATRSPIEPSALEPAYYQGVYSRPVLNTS
UniProt P48432: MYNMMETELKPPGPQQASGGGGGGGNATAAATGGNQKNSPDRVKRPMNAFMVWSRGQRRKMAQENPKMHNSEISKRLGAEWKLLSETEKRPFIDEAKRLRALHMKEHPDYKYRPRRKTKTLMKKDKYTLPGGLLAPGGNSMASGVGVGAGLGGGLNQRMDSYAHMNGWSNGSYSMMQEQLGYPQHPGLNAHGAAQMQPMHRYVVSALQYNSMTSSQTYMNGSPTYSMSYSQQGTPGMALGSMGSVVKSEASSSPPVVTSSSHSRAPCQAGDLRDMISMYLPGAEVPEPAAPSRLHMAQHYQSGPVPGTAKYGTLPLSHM

Columns and labels:
ZEB1-flag [1] = target: T1, ZEB1-flag (UniProt Q64318); assay: co-IP; HEK293 cells co-transfected with 5 ug of each expression vector; lysate incubated with Flag antibody bound beads 2h at 4°C; eluted with 3xFlag peptide; Myc-tagged SOX2 forms analysed; no DNase I
T1 sequence: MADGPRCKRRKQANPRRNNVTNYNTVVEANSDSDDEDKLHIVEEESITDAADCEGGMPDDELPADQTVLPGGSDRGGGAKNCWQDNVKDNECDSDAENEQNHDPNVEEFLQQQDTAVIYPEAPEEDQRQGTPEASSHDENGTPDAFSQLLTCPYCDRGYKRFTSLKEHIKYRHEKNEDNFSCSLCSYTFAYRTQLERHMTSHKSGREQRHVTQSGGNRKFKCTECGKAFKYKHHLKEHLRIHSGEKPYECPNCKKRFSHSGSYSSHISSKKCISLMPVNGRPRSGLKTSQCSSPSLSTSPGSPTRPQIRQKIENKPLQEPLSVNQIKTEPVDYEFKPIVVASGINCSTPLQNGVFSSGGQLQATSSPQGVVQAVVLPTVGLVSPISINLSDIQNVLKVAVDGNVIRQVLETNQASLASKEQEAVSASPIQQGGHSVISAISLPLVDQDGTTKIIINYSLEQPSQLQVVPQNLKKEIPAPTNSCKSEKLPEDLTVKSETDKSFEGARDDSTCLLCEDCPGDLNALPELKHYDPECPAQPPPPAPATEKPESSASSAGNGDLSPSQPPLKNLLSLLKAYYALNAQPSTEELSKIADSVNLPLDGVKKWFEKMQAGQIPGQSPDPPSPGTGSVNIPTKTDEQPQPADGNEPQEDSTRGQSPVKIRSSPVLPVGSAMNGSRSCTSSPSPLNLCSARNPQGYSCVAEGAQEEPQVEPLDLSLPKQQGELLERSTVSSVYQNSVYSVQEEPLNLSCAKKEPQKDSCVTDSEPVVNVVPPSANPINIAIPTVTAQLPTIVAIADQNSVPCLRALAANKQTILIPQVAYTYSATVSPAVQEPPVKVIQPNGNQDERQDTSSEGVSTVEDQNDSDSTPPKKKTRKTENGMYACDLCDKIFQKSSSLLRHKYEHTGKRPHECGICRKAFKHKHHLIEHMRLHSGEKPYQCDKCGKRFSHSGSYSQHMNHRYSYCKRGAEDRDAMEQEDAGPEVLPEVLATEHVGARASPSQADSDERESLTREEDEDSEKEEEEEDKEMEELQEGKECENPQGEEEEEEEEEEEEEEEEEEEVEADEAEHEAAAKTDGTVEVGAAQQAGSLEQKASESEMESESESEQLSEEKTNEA

FOXA1-flag [2] = target: FOXA1-flag (UniProt P35582); assay: as above
ZEB1-flag [3] = target: T1, ZEB1-flag; assay: co-IP; as the co-IP from HEK293 lysate on Flag antibody bound beads, but 100U/ml DNase I added to the lysate for 30 min at 4°C before immunoprecipitation
FOXA1-flag [4] = target: FOXA1-flag (UniProt P35582); assay: as above

Measured: binding

Myc-tagged full-length SOX2 (from UniProt P48432 1-319)
binds: all assays above
